In PubChem BioAssay AID2685 (National Center for Advancing Translational Sciences (NCATS), 2010):
This is one part of the list. Shown are side measurements of this screen, not its main read-out; they come without a call. Most of these compounds were active or inconclusive in the main read-out, so they are no random draw. Words in brackets tell the shape of the fitted curve; partial curves, single points and poor fits give uncertain potencies.

Experiment: qHTS Assay for Lipid Storage Modulators in Drosophila S3 Cells;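 as to cell number change: cells counted by Cell Tracker Red CMTPX staining in the red channel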
Conditions: BODIPY lipid droplet fluorescence, 18-24 h; for cell number change: measured here: cell count max response, cells fed with added oleic acid
How it was run: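 Laser-scanning cytometry quantifies lipid droplet accumulation (500–530 nm total intensity; droplet/cell object ratio) in oleic acid-fed (400 uM added) Drosophila S3 cells treated with a concentration series. 20 uM Triacsin C defined 100% inhibition.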

[1] = measured here: lipid fluorescence (Fed channel) AC50, cells fed with added oleic acid
[2] = measured here: cell number channel AC50, cells fed with added oleic acid

Row | Structure (SMILES) | AC50 [1] | cell number change | AC50 [2]
1 | CCc1nn(C(CC)C(=O)NCc2cccc(OC)c2OC)c(=O)c2cc3occc3n12 (stereo not drawn) | 8.2 µM [falling, partial curve] | – | –
2 | NC(=O)CC(NC(=O)Cc1cccc2ccccc12)c1ccc(N2CCN(c3ccccn3)CC2)c([N+](=O)[O-])c1 (stereo not drawn) | 29.1 µM [falling, single point] | -29.6% | –
3 | C=CCN1C(=O)C(CC(=O)O)SC1=Nc1c(C)n(C)n(-c2ccccc2)c1=O (stereo not drawn) | 29.1 µM [rising, single point] | 0.361% | –
4 | Cc1cccc(/C=C2\Sc3ccc(C(=O)N4CCC(C(N)=O)CC4)cc3N(C)C2=O)c1 | – | 0.943% | –
5 | O=C(c1ccc2c(=O)n(Cc3ccco3)c(=S)[nH]c2c1)N1CCN(Cc2ccccc2)CC1 | – | 5.48% | –
6 | C/C(=N\NC(=O)COc1ccccc1[N+](=O)[O-])c1cccc(NC(=O)c2ccncc2)c1 | 10.3 µM [falling, partial curve] | -46.1% | 13 µM [falling, partial curve]
7 | CCOC(=O)C1=C(O)C(=O)N(Cc2cccnc2)C1c1ccc(C)cc1 (stereo not drawn) | 29.1 µM [rising, single point] | 95.1% | 29.1 µM [rising, single point]
8 | O=c1oc2ccccc2cc1-c1nnc(-c2cccc(Br)c2)o1 | – | -1.42% | –
9 | N#CC1=C(SCC(=O)Nc2ccccc2)NC(=O)CC1c1ccc(O)cc1 (stereo not drawn) | 16.4 µM [rising, partial curve] | 15.9% | –
10 | CCOC(=O)c1cc2c(=O)n3cc(C)ccc3nc2n(Cc2cccnc2)c1=N | 1.3 µM [rising, partial curve] | 8.36% | –
11 | N/C(=N\OC(=O)c1ccc(Cl)c(Cl)c1)c1cccnc1 | – | -46.9% | 25.9 µM [falling, single point]
12 | COCc1nc(-c2ccc(-c3ccccc3)nc2OC)no1 | 10.3 µM [falling, partial curve, poor fit] | – | –
13 | O=[N+]([O-])c1ccccc1S(=O)(=O)Nc1ccn(Cc2c(F)cccc2Cl)n1 | 29.1 µM [rising, single point] | -8.42% | –
14 | N#Cc1c(N)c(C#N)c(-c2ccc(O)cc2)c2c1CCCC2 | 0.259 µM [falling, partial curve, poor fit] | -21.3% | –
15 | COc1ccccc1N1CCN(c2nc3ccccn3c(=O)c2C=O)CC1 | – | – | 0.146 µM [rising, full curve, poor fit]
16 | COc1ccc(C(=O)Nc2ccc3c(c2)OCCO3)cc1[N+](=O)[O-] | – | 15.3% | –
17 | O=C(Nc1ccc(NC(=O)c2ccccc2Cl)nc1)c1ccco1 | 3.55 µM [falling, partial curve] | -3.95% | –
18 | O=C(N/C(=C/C=C/c1ccccc1)C(=O)N1CCOCC1)c1ccccc1Br | – | -6.61% | 6.51 µM [rising, single point]
19 | CCOC(=O)c1ccc(NC(=S)NC(=O)COc2ccccc2)cc1 | 23.1 µM [rising, single point] | 21.6% | 0.13 µM [rising, full curve, poor fit]
20 | CC1CN(S(=O)(=O)c2cccc(C(=O)Nc3ccc4c(c3)CCC4)c2)CC(C)O1 (stereo not drawn) | 2.31 µM [rising, partial curve] | – | 2.06 µM [rising, partial curve]

Row | Structure (SMILES) | AC50 [1] | cell number change | AC50 [2]
21 | Cc1c(C(=O)Nc2nnc(SCc3ccccc3Cl)s2)cccc1[N+](=O)[O-] | 8.2 µM [rising, partial curve] | 50% | 29.1 µM [rising, single point]
22 | Cc1cc(C)nc(N(C#N)Cc2cccc3ccccc23)n1 | 0.58 µM [rising, full curve] | – | –
23 | C=CCn1c(SCC(=O)c2ccc(O)c(O)c2)nnc1-c1ccc(OC)cc1 | – | -39.3% | 29.1 µM [falling, single point]
24 | NC(=S)N=Nc1c(O)[nH]c2ccc(F)cc12 | – | 28.4% | 6.51 µM [rising, single point]
25 | Cc1ccc(C(=O)Nc2ncc3c(n2)CC(c2ccco2)CC3=O)cc1 (stereo not drawn) | 0.00461 µM [rising, full curve, poor fit] | 2.34% | –
26 | CCCCCN(C(=O)COC(=O)c1ccc(Br)o1)c1c(N)n(CCCC)c(=O)[nH]c1=O | 1.46 µM [rising, partial curve, poor fit] | 1.86% | –
27 | Cc1oc(-c2ccccc2F)nc1CS(=O)(=O)CC(=O)NC(C)CCc1ccccc1 (stereo not drawn) | – | 14.4% | –
28 | COc1ccc(C2CC(C(F)(F)F)n3nc(C(N)=O)c(Cl)c3N2)cc1OC (stereo not drawn) | – | 6.75% | 0.092 µM [falling, full curve, poor fit]
29 | COc1ccc(NC(=S)NCc2ccc(Cl)cc2)c(OC)c1 | – | -32.3% | 0.92 µM [falling, full curve, poor fit]
30 | O=[N+]([O-])c1cc(-c2cnc3ccccc3n2)ccc1Oc1ccc(Cl)cc1 | 16.4 µM [falling, single point] | -19.4% | –
31 | Cc1ccc(/C=N/NC(=O)c2ccoc2C)s1 | 13 µM [rising, partial curve, poor fit] | -40.8% | 32.6 µM [falling, single point]
32 | O=C(Nc1cccnc1)c1ccc(Br)s1 | 32.6 µM [falling, single point] | 13.3% | –
33 | O=C(c1ccc(F)cc1)n1c(NCc2ccccc2)n[nH]c1=S | 0.82 µM [rising, single point] | – | –
34 | O=CC1=C(c2ccccc2)Oc2ccccc2O1 | 25.9 µM [falling, single point] | -14.2% | –
35 | COc1cccc(NC(=O)NC2CCN(Cc3nnnn3Cc3ccc(F)cc3)CC2)c1 | 0.13 µM [falling, full curve, poor fit] | 14.2% | –
36 | Fc1ccc(N=c2ssnc2Cl)c(F)c1 | 4.61 µM [falling, full curve, poor fit] | -62.5% | 0.0058 µM [falling, full curve, poor fit]
37 | CC(=O)N1CCN(C(=O)c2cccc(S(=O)(=O)Nc3c(C)n(C)n(-c4ccccc4)c3=O)c2)CC1 | – | 15% | –
38 | O=C(Cn1ccc2ccccc2c1=O)NCCC(=O)Nc1ccc2c(c1)OCCO2 | – | 0.8% | –
39 | CC(Sc1nnc(NCc2ccccc2)s1)C(=O)Nc1ccc2c(c1)C(=O)c1ccccc1C2=O (stereo not drawn) | – | 3.7% | 0.366 µM [rising, full curve, poor fit]
40 | CCN(CC(=O)Nc1c(F)cccc1F)C(=O)Cc1ccc2c(c1)CCC2 | – | -61.8% | 32.6 µM [falling, partial curve]

Row | Structure (SMILES) | AC50 [1] | cell number change | AC50 [2]
41 | CCC/C=C(\CCC)C(NS(=O)(=O)c1ccc(C(F)(F)F)cc1)c1ccccc1 (stereo not drawn) | 2.06 µM [rising, full curve, poor fit] | -46.8% | 20.6 µM [falling, single point]
42 | COc1ccc(NC(=O)NC2CCCCCCC2)cc1 | 0.794 µM [falling, single point] | 9.15% | –
43 | Cc1cccc(C(=O)Nc2sc(C)c(-c3ccccc3)c2C#N)c1 | 29.1 µM [rising, single point] | -17.3% | –
44 | O=C(COc1ccc([N+](=O)[O-])cc1)N1CCN(c2nnc(-c3ccccc3)c3ccccc23)CC1 | 8.2 µM [falling, partial curve] | -15.1% | –
45 | CCOC(=O)N1CCN(C(=O)CNS(=O)(=O)c2c(C)cc(C)cc2C)CC1 | 0.58 µM [falling, single point] | 12.2% | –
46 | Cc1cc(C)cc(NC(=O)CCCn2nc(C)c3c(C)n(-c4ccccc4)nc3c2=O)c1 | – | -5.44% | –
47 | CC(C)n1ncc2c(C(=O)N3CCN(Cc4ccc(Cl)s4)CC3)cc(C3CC3)nc21 | – | -32.4% | 18.4 µM [falling, single point]
48 | C=CCn1c(=N)c(C(=O)NCCCOC)cc2c(=O)n3ccccc3nc21 | – | -45.7% | 18.4 µM [falling, single point]
49 | COc1ccccc1C1=Nc2cccc3cccc(c23)N1 | 14.6 µM [falling, partial curve] | -37.7% | 18.4 µM [falling, single point]
50 | O=C1c2cccc3cccc(c23)C(=O)N1OS(=O)(=O)c1ccccc1 | 0.58 µM [falling, single point] | -28.8% | –
51 | CN(C)CCNc1ncnc2c1sc1nc(-c3ccccc3)c3c(c12)CCCC3 | – | -29.3% | –
52 | Cc1ccc(C2CC2/C(=N/O)c2ccc(F)cc2)cc1 (stereo not drawn) | 23.1 µM [falling, partial curve] | -48.4% | 10.3 µM [falling, partial curve]
53 | C[C@]12CS(=O)(=O)C[C@H]1SC(=S)N2c1ccccc1 | – | 2.67% | 0.0116 µM [rising, full curve, poor fit]
54 | Nc1ccnc(Oc2ccc(F)cc2)c1 | 0.164 µM [falling, full curve] | -19.2% | 0.146 µM [falling, full curve, poor fit]
55 | CCOc1ccc(C(O)(CCC(C)C)C(CN2CCOCC2)c2ccccc2)cc1 (stereo not drawn) | 20.6 µM [falling, single point] | -61.6% | 29.1 µM [falling, single point]
56 | COc1cc(CNCCc2ccccc2)cc(Cl)c1OCc1ccccc1 | – | -63.1% | 3.66 µM [falling, partial curve]
57 | O=C(Nc1ccnn1C1CCN(Cc2ccccc2OCCO)CC1)c1cccc(F)c1 | 13 µM [rising, partial curve] | 31.4% | 32.6 µM [rising, single point]
58 | Nn1c(SCC(=O)N2CCOCC2)nnc1-c1ccc(Cl)cc1Cl | 0.58 µM [rising, single point] | – | –

3 entries already listed, arranged by number of heavy atoms, ascending.
Row | Structure (SMILES) | AC50 [1] | cell number change | AC50 [2]
28 | COc1ccc(C2CC(C(F)(F)F)n3nc(C(N)=O)c(Cl)c3N2)cc1OC (stereo not drawn) | – | 6.75% | 0.092 µM [falling, full curve, poor fit]
26 | CCCCCN(C(=O)COC(=O)c1ccc(Br)o1)c1c(N)n(CCCC)c(=O)[nH]c1=O | 1.46 µM [rising, partial curve, poor fit] | 1.86% | –
35 | COc1cccc(NC(=O)NC2CCN(Cc3nnnn3Cc3ccc(F)cc3)CC2)c1 | 0.13 µM [falling, full curve, poor fit] | 14.2% | –
